Data taken from ChEMBL document CHEMBL3988442, “University of Dundee, Small-Polar-MMV Screening Library” (2021).

By UniProt entry, the sequences of proteins in these tests, tags left out. Residues count along the entry.
UniProt P9WPC5, whole entry: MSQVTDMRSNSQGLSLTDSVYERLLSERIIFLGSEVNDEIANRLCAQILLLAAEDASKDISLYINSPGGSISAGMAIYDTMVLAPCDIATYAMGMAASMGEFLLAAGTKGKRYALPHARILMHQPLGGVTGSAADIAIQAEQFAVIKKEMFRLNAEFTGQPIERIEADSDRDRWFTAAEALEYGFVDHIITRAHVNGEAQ
UniProt P9WPC3, whole entry partner: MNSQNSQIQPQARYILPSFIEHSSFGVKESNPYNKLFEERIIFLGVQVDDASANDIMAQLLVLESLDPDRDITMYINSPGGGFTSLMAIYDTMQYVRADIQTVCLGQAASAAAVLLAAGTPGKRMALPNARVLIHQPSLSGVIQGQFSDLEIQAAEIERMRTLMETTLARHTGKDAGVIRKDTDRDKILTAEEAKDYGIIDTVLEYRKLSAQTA
UniProt Q8IDJ8, 1-583: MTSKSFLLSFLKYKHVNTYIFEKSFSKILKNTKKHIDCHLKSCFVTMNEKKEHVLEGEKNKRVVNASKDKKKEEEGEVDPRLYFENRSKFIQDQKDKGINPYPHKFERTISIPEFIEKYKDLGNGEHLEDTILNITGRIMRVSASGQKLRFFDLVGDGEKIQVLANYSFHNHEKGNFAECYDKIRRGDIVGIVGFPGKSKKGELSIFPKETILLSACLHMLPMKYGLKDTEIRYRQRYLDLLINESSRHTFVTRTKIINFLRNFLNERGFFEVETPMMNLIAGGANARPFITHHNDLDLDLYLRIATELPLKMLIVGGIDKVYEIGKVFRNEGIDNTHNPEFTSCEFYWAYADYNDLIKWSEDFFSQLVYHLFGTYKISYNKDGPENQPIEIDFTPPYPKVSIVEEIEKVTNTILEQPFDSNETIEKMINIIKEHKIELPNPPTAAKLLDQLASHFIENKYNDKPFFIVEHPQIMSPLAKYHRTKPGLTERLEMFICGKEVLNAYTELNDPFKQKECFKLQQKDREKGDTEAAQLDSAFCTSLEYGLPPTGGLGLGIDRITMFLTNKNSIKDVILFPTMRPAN
UniProt P9WFT3, whole entry: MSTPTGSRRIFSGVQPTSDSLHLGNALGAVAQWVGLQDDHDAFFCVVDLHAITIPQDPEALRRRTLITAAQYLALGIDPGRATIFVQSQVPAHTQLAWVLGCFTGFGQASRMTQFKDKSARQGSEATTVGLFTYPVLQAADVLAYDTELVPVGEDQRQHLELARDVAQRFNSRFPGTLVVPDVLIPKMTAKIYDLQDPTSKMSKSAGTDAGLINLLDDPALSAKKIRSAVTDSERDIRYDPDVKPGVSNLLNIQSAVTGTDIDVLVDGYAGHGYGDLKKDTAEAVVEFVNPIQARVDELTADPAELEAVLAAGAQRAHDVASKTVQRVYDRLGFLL
UniProt A4I591, 1-473: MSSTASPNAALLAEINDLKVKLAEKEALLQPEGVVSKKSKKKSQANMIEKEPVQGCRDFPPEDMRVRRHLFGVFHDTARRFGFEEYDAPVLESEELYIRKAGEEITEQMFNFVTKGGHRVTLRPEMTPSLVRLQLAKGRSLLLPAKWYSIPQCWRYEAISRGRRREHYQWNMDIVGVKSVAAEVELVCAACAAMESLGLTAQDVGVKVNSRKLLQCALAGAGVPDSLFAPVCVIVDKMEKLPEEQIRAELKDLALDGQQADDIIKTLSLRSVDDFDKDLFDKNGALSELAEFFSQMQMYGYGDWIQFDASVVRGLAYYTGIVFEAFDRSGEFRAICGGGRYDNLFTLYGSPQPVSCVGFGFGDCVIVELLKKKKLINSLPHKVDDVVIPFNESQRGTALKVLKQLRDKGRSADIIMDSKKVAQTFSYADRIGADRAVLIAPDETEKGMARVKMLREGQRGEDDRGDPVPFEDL
UniProt Q4DA54, 1-478: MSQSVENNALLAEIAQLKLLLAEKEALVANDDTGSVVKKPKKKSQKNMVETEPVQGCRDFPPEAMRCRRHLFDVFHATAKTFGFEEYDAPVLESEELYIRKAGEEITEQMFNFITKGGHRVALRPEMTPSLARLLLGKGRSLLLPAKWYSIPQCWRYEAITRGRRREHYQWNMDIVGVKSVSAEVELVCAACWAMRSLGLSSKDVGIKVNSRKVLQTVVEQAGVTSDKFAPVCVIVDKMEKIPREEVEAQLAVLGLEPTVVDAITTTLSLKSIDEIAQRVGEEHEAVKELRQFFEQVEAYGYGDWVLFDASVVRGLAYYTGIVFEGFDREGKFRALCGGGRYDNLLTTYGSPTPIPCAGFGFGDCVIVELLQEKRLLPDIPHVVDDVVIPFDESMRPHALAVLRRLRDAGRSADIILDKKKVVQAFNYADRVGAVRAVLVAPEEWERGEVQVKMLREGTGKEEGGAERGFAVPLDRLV

Values are the deposited “Percent Effect”, in %. The controls that fix the scale are not given in the record; negative values are as filed. This is an unselected part of the compounds tested. Two or more numbers in one place are separate tests of the same structure; such repeats can differ widely. A dash means the value is not listed here; it may have been measured.

A: 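Protease assay of ClpP1P2, read by the AMC dye that it sets free. Target: ClpP1P2, Mycobacterium tuberculosis (UniProt P9WPC5 and UniProt P9WPC3). Compounds at 50 µM. Direction is inferred from only a few compounds that gave an IC50; most scored high, so higher reads as stronger inhibition. Most other retested compounds had strongly negative values. About 69,000 compounds were tested under these conditions; 0.015% (about 10) showed 50% or more at least once.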
B: 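Enzyme assay of the cytosolic lysyl-tRNA synthetase in 384-well plates, read by luminescence. Target: Lysine-tRNA ligase, Plasmodium falciparum 3D7 (UniProt Q8IDJ8). Compounds at 30 µM. Higher reads as stronger inhibition, judged from the few compounds that gave an IC50. Size under these conditions: about 69,000 compounds, about 49 of them at 50% or above in at least one test.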
C: 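Enzyme assay of tryptophanyl-tRNA synthetase; the read-out is not stated. Target: Tryptophan-tRNA ligase, Mycobacterium tuberculosis (UniProt P9WFT3). Compounds at 10 µM. Higher most likely means stronger inhibition; the record gives no direction and few retests gave an IC50. Of about 65,000 compounds tested this way, about 64 (0.098%) reached 50% or more in at least one test.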
D: 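Enzyme assay of histidyl-tRNA synthetase; the read-out is not stated. Target: Histidine-tRNA ligase, Leishmania infantum (UniProt A4I591). Tested at 30 µM. The record gives no direction; compounds that gave an IC50 in retests scored well above the rest, so higher reads as stronger inhibition. The assay is labelled LdHisRS but filed under L. infantum. Size under these conditions: about 69,000 compounds, about 410 of them at 50% or above in at least one test.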
E: 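Histidine-tRNA ligase, Trypanosoma cruzi CL Brener (UniProt Q4DA54). Enzyme assay of histidyl-tRNA synthetase; the read-out is not stated. Tested at 30 µM. Higher reads as stronger inhibition (inferred: compounds with an IC50 in retests scored well above the rest). About 69,000 compounds were tested under these conditions; 0.045% (about 31) showed 50% or more at least once.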
F: 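Cell assay of Leishmania donovani living inside macrophages; the read-out is not stated. Compounds at 30 µM. The record gives no direction; compounds that gave an IC50 in retests scored well above the rest, so higher reads as stronger inhibition. About 69,000 compounds were tested under these conditions; 1.5% (about 1,000) showed 50% or more at least once.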

| # | Compound | A | B | C | D | E | F |
|---|---|---|---|---|---|---|---|
| 1 | `COCCNC(=O)N1CC(Cc2ccccc2F)C1` | -5.129 | -0.7061 | -4.706 | 14.46 | 11.6 | 9.224 |
| 2 | `Cn1nccc1-c1ncc2c(c1C(=O)O)CCN(Cc1cccnc1)C2.O=C(O)C(F)(F)F.O=C(O)C(F)(F)F` | - | - | - | - | - | 12.76 |
| 3 | `COCCc1noc(CN2CCCC2Cn2nc(C)cc2C)n1` (configuration not stated) | -8.252 | 0.4556 | 8.461 | 18.8 | 7.692 | 11.76 |
| 4 | `O=S(=O)(Cc1ccccc1F)N1CCCC1c1nnc2n1CCCCC2` (configuration not stated) | -7.675 | 9.651 | 5.033 | 28.21 | 0 | 17.11 and 19.76 |
| 5 | `COc1ccc(CN2CCn3c(C(=O)N(C)C)cnc3C2)cc1` | -0.1196 | 3.292 | -1.876 | 24 | 5.882 | - |
| 6 | `CCCS(=O)(=O)N1C[C@@H](c2nc(C)no2)C[C@H]2OCC[C@H]21` | -0.6983 | 3.04 | 1.943 | 11.7 | 6.03 | - |
| 7 | `O=C1COC2(CCN(Cc3ccncc3)CC2)CN1CC1CC1` | -8.297 | 0.3151 | -4.701 | 2.655 | 8.602 | -3.65 and -37.15 |
| 8 | `Cn1cc(-c2nnn3c2COC(CNCc2nccs2)C3)cn1` (configuration not stated) | 3.841 | 3.016 | -2.972 | 23.53 | 2.732 | 16.61 |
| 9 | `O=C(c1ccc(-c2cnco2)cc1)N1CCC(Nc2cccnn2)CC1` | -4.789 | 0.9902 | -5.063 | 1.739 | 2.874 | -8.359 |
| 10 | `O=C(CCc1cn[nH]c1)N1C[C@@H](CN2CCOCC2)C[C@H](CO)C1` | -7.24 | -2.192 | 4.93 | -2.151 | 1.571 | 12.81 |
| 11 | `CCS(=O)(=O)CCCN1CCSCC1c1ccc(Cl)cc1` (configuration not stated) | -16.24 | 3.751 | 0.08211 | 15.5 | 7.143 | 1.543 |
| 12 | `CCc1nnsc1C(=O)NC1CCN(CCOc2ccc(Br)cc2)CC1` | -16.88 | 3.036 | -9.459 | 10.53 | 7.263 | 24.92 |
| 13 | `[H][C@@]12COC[C@H](c3nc(C)no3)[C@]1([H])CN(C(=O)Cc1cccs1)C2` | - | - | - | - | - | -12.18 |
| 14 | `Cn1ccnc1CN1CCC2(CC(=O)N(c3ccccn3)C2)C1.O=C(O)C(F)(F)F.O=C(O)C(F)(F)F` (configuration not stated) | - | - | - | - | - | 48.34 |
| 15 | `CN(Cc1c(Cl)ccc2cccnc12)CC(C)(CO)CO` | -13.62 | 3.333 | -2.922 | -0.8929 | 3.448 | 5.124 |
| 16 | `Cc1noc2ncnc(NC(CC(C)(C)C)c3cccnc3)c12` (configuration not stated) | -13.39 | 4.815 | -2.605 | 4.167 | 2.899 | -8.388 |
| 17 | `Cc1ccc2c(c1)C1(CCNCC1)CN2C(=O)CN(C)C` | 2.406 | 1.409 | 2.528 | 13.53 | 4.972 | - |
| 18 | `Cc1cc(C)n(CC(C)NC(=O)c2cc(C(C)C)on2)n1` (configuration not stated) | 3.554 | 1.945 | 2.119 | 18.31 | 3.185 | 17.71 |
| 19 | `CN1C(=O)CC(c2ccccc2)C12CCN(CC1CCOCC1)CC2.O=C(O)C(F)(F)F` (configuration not stated) | - | - | - | - | - | -6.621 |
| 20 | `CC1CCC(NC(=O)CNC2(c3ccc(F)cc3)CCOCC2)CC1` (configuration not stated) | -26.4 | 1.667 | -3.219 | 7.965 | 0.4425 | 15.27 |
| 21 | `CC(C)C(=O)N1CCCC2(CCCN2CC2CCCC2)C1` (configuration not stated) | -2.77 | -0.9442 | -5.712 | 7.692 | 2.674 | - |
| 22 | `c1cnc(N2CCOC3(CCCN(c4cnccn4)C3)C2)nc1` (configuration not stated) | -17.67 | 0.1597 | 0.3607 | 7.895 | 3.448 | - |
| 23 | `CNc1cc(C)nc(C2COCCN2CCc2ccc(F)cc2)n1` (configuration not stated) | -1.029 | -0.4411 | -8.155 | 15.94 | 11.36 | 29.08 |
| 24 | `Cn1nc(C2CCN(C(=O)c3cnccn3)C2)cc1CCO` (configuration not stated) | 0.5394 | -0.6938 | 2.467 | 8.571 | 4.981 | 26.05 |
| 25 | `NC(=O)c1cccnc1N1CCN(c2ncnc3c2CCNC3)CC1` | 1.859 | 4.027 | 2.314 | 10.75 | -0.5236 | 20.26 |
| 26 | `CCc1nc(CN2CCCN(C(=O)c3cnc[nH]3)CC2)cs1` | -0.7451 | -2.217 | 5.345 | 6.154 | -2.682 | 20.79 |
| 27 | `Clc1ccc(N2CCN(CCCN3CCCCC3)CC2)nc1` | -9.832 | 4.262 | -1.1 | 10.92 | 6.863 | 68.75 |
| 28 | `Cc1nc(C(C)C)sc1C(=O)N1CCC(N2CCSCC2)CC1` | -2.63 | 5.879 | 0.8811 | 8.163 | 8 | 33.95 |
| 29 | `CCc1cnc(N)nc1NCCC(=O)NC1CCCCC1` | 0.05068 | 4.242 | 1.961 | 13.33 | 16.36 | 11.46 |
| 30 | `CN(C)c1cc(CNC(=O)Nc2ccc(F)cc2)ccn1` | 26.03 | 2.063 | -4.974 | -12.77 | 0.7634 | 37.95 |

For reference, 2 entries once more:

For [H][C@@]12COC[C@H](c3nc(C)no3)[C@]1([H])CN(C(=O)Cc1cccs1)C2 the result was F: -12.18%.
For O=C1COC2(CCN(Cc3ccncc3)CC2)CN1CC1CC1 the result was A: -8.297%; B: 0.3151%; C: -4.701%; D: 2.655%; E: 8.602%; F: -3.65% and -37.15%.